Measured values taken from paper PMC9266971.
These are yes or no findings as the source states them, for the method shown. In cells and extracts the contact can be indirect. Some binding calls cover weakened binding; strength is not graded here.

Protein sequences, listed by entry. Tags and fused reporters are not part of them. Lines headed by an entry give the natural chain unless they say otherwise; changes in a name come on top. Chains listed by the source or under a name are the forms on record and can include a tag or linker.
Sarcoplasmic reticulum calcium ATPase (SERCA2a), mouse heart (mouse (endogenous in mouse heart)) (O55143, form named): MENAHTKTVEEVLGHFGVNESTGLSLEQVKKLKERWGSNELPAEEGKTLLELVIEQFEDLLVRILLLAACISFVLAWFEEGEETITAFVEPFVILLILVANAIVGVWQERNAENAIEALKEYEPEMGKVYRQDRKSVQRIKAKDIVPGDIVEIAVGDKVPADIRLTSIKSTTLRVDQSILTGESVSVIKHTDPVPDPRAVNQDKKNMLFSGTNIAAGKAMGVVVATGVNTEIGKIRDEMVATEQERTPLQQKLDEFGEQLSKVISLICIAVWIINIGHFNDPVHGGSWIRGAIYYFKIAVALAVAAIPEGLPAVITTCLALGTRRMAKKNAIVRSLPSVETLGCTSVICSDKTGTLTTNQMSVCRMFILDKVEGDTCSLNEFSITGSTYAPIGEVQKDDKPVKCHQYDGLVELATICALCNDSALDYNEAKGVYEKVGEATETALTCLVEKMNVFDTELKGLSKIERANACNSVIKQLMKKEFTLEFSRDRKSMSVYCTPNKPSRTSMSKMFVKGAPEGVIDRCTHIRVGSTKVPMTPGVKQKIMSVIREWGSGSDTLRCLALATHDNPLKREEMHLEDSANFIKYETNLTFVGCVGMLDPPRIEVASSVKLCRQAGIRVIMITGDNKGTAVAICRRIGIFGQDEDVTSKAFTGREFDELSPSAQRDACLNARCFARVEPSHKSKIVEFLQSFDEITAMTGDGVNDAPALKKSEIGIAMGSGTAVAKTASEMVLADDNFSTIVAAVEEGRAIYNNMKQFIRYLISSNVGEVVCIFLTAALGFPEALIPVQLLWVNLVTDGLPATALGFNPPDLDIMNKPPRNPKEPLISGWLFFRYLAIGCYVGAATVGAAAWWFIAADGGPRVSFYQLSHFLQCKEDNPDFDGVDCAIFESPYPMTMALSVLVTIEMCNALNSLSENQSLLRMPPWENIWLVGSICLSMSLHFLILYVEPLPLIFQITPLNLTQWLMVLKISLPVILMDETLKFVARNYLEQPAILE

How the values were obtained:
[1] = biological target: Sarcoplasmic reticulum calcium ATPase (SERCA2a), mouse heart (mouse (endogenous in mouse heart)) (UniProt O55143); experiment: co-IP; SERCA2 antibody and protein G PLUS agarose on cardiac homogenates (1 g/L) of PLN-WT or humanized PLN-R14del mice, 4 °C, 16 h; Western blot for PLN and HAX-1
[2] = biological target: GST-PLN-R14del recombinant protein (UniProt P26678); experiment: pull-down; equivalent amounts of GST-PLN-WT or GST-PLN-R14del on glutathione beads mixed with 0.5 mg wild-type mouse cardiac homogenate (10 mM NaPO4 pH 7.2, 2 mM EDTA, 10 mM NaN3, 120 mM NaCl, 1% NP-40), 4 °C, 16 h; Western blot; for Figure 3c the GST proteins were first treated with PKA; only the target purified
[3] = biological target: GST-PLN-WT recombinant protein (UniProt P26678); experiment: as above

| binding [1] | binding [2] | binding [3] | Binder |
| --- | --- | --- | --- |
| binds |  |  | PLN in hearts of WT (PLN-WT) mice (protein, UniProt P61014 1-52) MEKVQYLTRSAIRRASTIEMPQQARQNLQNLFINFCLILICLLLICIIVMLL |
|  | binds | binds | GM, muscle-specific glycogen-targeting subunit of PP1, mouse heart (protein, UniProt Q99MR9 1-1089) MEPAEEPGQISKDNFLEVPNLSDSVCEDEEVKATFKPGFSPQPSRRGSGSSEDMYLDTPTSASRRVSFADSLGFSLVSVKEFDCWELPSVSTDFDLSGDVFHTDEYVLSPLFDLPSSKEKLMEQLQVQKAVLESAEHLPGSSMKGIIRVLNISFEKLVYVRMSLDDWQTHYDILAEYVPNSCDGETDQFSFKISLVPPYQKEGGKVEFCIRYETSAGTFWSNNNGTNYILVCQKKRKEPEPVKPLEEAPSRQIKGCLKVKSRSKEEPLLAPEENKFETLKFTESYIPTIICSHEDKDDLGANHPNVDDINKKHDEHNGKELDLMINQRLITSQDEKNTFATDTVNFTNKAEGSEKKQAYHEINTDLFMGPLSPSLSAESSLKRDFYHSRSSSPGNEYGHPHSEEIISDMGEKGPSLGDTSSDELMQLELCSKEDLDDNANPANGSGRVCSSFDQRMACGLKNNEAGIKKTGIQDYKYSHGDSTKLEESNASSRDDYAKVDNKKEKQTCLGVNENPSKNFQSVFQTQEGHMGYPKISTEGDKANNQDLTSLLSKDITANTWAVTVDPCPSTNAKRSWREVGSGSNLEPGTSDLSSPRNFSPLTDDHLFQADRENSDSSNPENQNMNTRHRKKWNVLETQSETSETESDIAKHTKEQAEYKDMWEKTDNSRNLKATPTEHLFTCRETECYGLSSLADHGITEKAQAVTAYIIKTTLESTPESASARGKAIIAKLPQETAGNDRPIEVKETAFDPHEGRKDDSHYSLCHGDTAGVIHDNDFERESHLDICNLRVDEMKKEKTTSTCFPQKTYDKEKHGIGSVTSIDEPSQVITGNQKATSKLDLHLGVLPTDRAIFQANADLELLQELSRRTDFNAVPSAFNSDTASASRDSSQVYRHCSKKSVPSYGEEKAVTNTTLQSIPTKSEYNWHPESEVLGHAMSKPEDVFKSSEIMKSGSGGERGGGPILQQKEGSLENSQGPMFFTNEPLENLDEASSENEGLMHSGQSQCYLGDKGLVSSASATVSTQELEAQGRESLLSISTNSKIPYFLLFLIFLATVYYYDLMIGLAFYLFSLYWLYWEGGRQRESVKKK |
